Source: ChEMBL document CHEMBL3988442, “University of Dundee, Small-Polar-MMV Screening Library” (2021).

By UniProt entry, the sequences of proteins in these tests, tags left out. Residues count along the entry.
UniProt Q4DA54, 1-478: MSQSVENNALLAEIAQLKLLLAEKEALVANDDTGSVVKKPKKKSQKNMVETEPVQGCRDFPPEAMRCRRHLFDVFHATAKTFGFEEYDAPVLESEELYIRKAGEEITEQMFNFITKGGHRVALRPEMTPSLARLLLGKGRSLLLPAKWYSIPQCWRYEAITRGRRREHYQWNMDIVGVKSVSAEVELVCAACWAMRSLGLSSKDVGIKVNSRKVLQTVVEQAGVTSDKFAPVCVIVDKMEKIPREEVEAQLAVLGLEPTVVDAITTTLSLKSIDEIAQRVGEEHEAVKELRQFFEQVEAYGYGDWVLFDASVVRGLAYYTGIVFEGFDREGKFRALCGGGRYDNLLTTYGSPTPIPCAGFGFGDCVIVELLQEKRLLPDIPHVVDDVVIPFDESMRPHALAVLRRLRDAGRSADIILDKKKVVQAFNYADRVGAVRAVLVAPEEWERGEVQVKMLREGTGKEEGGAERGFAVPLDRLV
UniProt Q8IDJ8, 1-583: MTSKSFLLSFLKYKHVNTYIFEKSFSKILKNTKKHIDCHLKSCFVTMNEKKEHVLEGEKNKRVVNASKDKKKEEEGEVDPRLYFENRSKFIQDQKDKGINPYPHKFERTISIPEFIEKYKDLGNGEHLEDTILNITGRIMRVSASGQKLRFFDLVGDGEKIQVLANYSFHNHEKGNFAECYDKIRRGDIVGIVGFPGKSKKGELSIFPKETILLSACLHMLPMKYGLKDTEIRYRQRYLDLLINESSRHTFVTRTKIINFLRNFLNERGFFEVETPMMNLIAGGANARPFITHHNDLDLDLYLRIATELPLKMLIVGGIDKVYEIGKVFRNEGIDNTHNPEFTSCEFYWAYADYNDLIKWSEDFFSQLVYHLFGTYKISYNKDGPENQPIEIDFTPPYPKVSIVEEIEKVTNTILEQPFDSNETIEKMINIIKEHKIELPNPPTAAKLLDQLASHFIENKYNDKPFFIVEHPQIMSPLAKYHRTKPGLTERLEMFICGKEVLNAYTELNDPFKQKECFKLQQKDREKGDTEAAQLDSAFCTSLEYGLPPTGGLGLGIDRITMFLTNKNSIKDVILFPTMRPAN

Each number is a percent effect as filed. The controls that fix the scale are not given in the record; negative values are as filed. This is an unselected part of the compounds tested.

TcHisRS: 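Enzyme assay of histidyl-tRNA synthetase; the read-out is not stated. Target: Histidine-tRNA ligase, Trypanosoma cruzi CL Brener (UniProt Q4DA54). Compounds at 30 µM. The record gives no direction; compounds that gave an IC50 in retests scored well above the rest, so higher reads as stronger inhibition. Size under these conditions: about 69,000 compounds, about 31 of them at 50% or above in at least one test.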
PfKRS1: 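Enzyme assay of the cytosolic lysyl-tRNA synthetase in 384-well plates, read by luminescence. Target: Lysine-tRNA ligase, Plasmodium falciparum 3D7 (UniProt Q8IDJ8). Compounds at 30 µM. Higher reads as stronger inhibition, judged from the few compounds that gave an IC50. About 69,000 compounds were tested under these conditions; 0.071% (about 49) showed 50% or more at least once.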

| structure | TcHisRS | PfKRS1 |
|---|---|---|
| `COc1cc(C)c2c(c1C)C[C@H]([C@H](C)C(=O)O)CC2` | 1.493 | 9.164 |
| `c1cncc(-c2ccc3c(c2)CCC32CCNCC2)c1` | 4.598 | -1.337 |
| `Cc1c(Cl)cccc1OCC(=O)NC1(C#N)CCSC1` (configuration not stated) | 5.357 | 3.039 |
| `COc1ccc(-c2nnsc2C(=O)N2CCSCC2)cc1` | -1.031 | 0.3626 |
| `CC(O)CN1CCN(C(=O)CN(C)c2ccc(Cl)cn2)CC1` (configuration not stated) | 3.333 | 3.076 |
| `O=C(CNC(=O)C1CC1)Nc1c(F)cccc1Oc1ccccc1` | 7.843 | 2.136 |
| `CCc1nnsc1C(=O)N1CCCN(Cc2nccn2C)CC1` | -1.887 | -1.489 |
| `CC(=O)N1CCC(CCc2ccnc(NC(=O)c3ccccn3)c2)CC1` | 3.03 | 0.3272 |
| `CC(C)N1CCC(Cc2cc(-c3cccc(C(=O)O)c3)ncn2)C1` (configuration not stated) | 4.865 | 1.653 |
| `Cc1cccc(CN2CCc3c(nc(N4CCC(C)CC4)[nH]c3=O)C2)n1` | 7.027 | 3.284 |
| `CN1C(=O)[C@H]2CC[C@@H]1CN(C(=O)c1csc(Cc3ccccc3)n1)C2` | 7.216 | 4.789 |
| `O=C(Cn1nc2c(cc1=O)CCCC2)NC(Cc1ccccc1)C(=O)O` (configuration not stated) | 0.5917 | -0.9337 |
| `CC(C)c1nc(N2CCC(N3CCSCC3)CC2)c2cnn(C)c2n1` | 4.02 | -1.228 |
| `c1cncc(COc2ccccc2CNC2CCc3ncnn3C2)c1` (configuration not stated) | 3.226 | -0.7697 |
| `CCCNC(=O)C(C)Nc1ccn(Cc2ccccn2)n1` (configuration not stated) | 1.587 | 2.473 |
| `CCCN1CCN(c2nc(N)nc3c2nc(C)n3C)CC1` | 5.699 | 0.5991 |
| `N#CCSCC(=O)NCC1CCCCC1` | 7.071 | 8.753 |
| `O=C(c1cccnc1)N1CCC[C@]2(C[C@H](Oc3ncccc3F)CO2)C1` | 9.649 | 5.395 |
| `CCOc1ccccc1NC(=O)NCc1ccoc1` | 5.732 | 5.416 |
| `CCc1cc(C(=O)N2CCc3nc4c(C)csc4c(=O)n3CC2)on1` | 9.89 | 1.71 |
| `O=C(NC[C@H]1COCc2nc3cc(F)ccc3n21)c1cccnc1` | 3.261 | 1.236 |
| `CCN(Cc1noc(C2CCC2)n1)C(=O)c1cn2ccsc2n1` | 4 | -2.68 |
| `O=C(c1cc(F)ccc1O)N1CCN(C2CCOCC2)CC1` | 2.155 | 6.738 |
| `CC(C)(O)C1CCCN(C(=O)Nc2nc(-c3ccccc3)ns2)C1` (configuration not stated) | 2.174 | 3.001 |
| `Cc1n[nH]c(C)c1NC(=O)CN1CCCC(CNC(=O)C(C)(C)C)C1` (configuration not stated) | -0.3802 | -4.96 |
| `O=C(O)c1ccc(CCNC(=O)C2(O)Cc3ccccc3C2)cc1` | 1.734 | -1.329 |
| `O=C(NCCCn1ccccc1=O)c1cnc(-c2ccsc2)s1` | 11.67 | 4.369 |
| `Cc1nc(CCN(C)C(=O)CN2C(=O)OC[C@@H]2c2ccccc2)no1` | 5.422 | 1.905 |
| `Cc1cc(CN2CCCC2)cc(Oc2ccc3c(c2)CC(CN)O3)c1` (configuration not stated) | 0 | 3.522 |
| `CC(=O)N1CCCCCC1C1CCN(Cc2nc(C(C)C)no2)CC1` (configuration not stated) | 4.891 | -1.912 |
| `C[C@H]1C[C@@H]2CCN(C(=O)c3ccncc3)C[C@H]2O1` | 4.878 | 5.897 |
| `CN(CC(=O)N1CCN(c2ncccn2)CC1)c1ccc(Cl)cn1` | -1.667 | 2.197 |
| `CCCNc1cc(C(=O)N2CCOCC2)nc(C)n1` | 0 | -0.7535 |
| `COc1cccc2c1N(Cc1noc(C3CC3)n1)CCC2` | 6.863 | -1.622 |
| `COc1cc(CN2C[C@H](OC)[C@]3(CCCO3)C2)ccc1F` | 3.297 | -0.9942 |
| `CN(Cc1ccc(F)cc1C#N)CC(F)(F)F` | -1.724 | -1.354 |
| `CCCS(=O)(=O)N1CC(=O)N(CCCc2ccccc2)CC(O)C1` (configuration not stated) | -1.156 | 0.03837 |
| `CCC(CO)NCc1ccc(-c2ccc(F)c(Cl)c2)o1` (configuration not stated) | 6.186 | 3.018 |
| `O=S(=O)(NCc1ccccc1)N1CCN(c2ncccn2)CC1` | 2.439 | 0.8826 |
| `CC(=O)N1CCCC(c2nc(N(C)C)ncc2-c2ccccc2)C1` (configuration not stated) | 6.513 | 0.1892 |
| `O=C(CCc1ccc(F)cc1)NS(=O)(=O)c1ccc2c(c1)OCCO2` | -4.167 | 3.29 |
| `O=C(N1CCOCC1)N1CCC(Nc2ccncn2)CC1` | 5.747 | 0.9119 |
| `NC(=O)c1cnn2c1NCC(CNCCc1cccs1)C2` (configuration not stated) | 4.142 | -1.421 |
| `CCc1ccc2occ(CC(=O)N3CCC4(CCCN(C)C4=O)C3)c2c1` (configuration not stated) | -1.961 | 3.964 |
| `Cc1nonc1C1CCCN1C(=O)CCc1cc2n(n1)CCCNC2` (configuration not stated) | 4.124 | 5.692 |
| `CCN(c1ccc(C(=O)NCc2cc[nH]n2)cc1)C(C)C` | 2.105 | 1.397 |
| `Nc1nc2c(c(N3CCC(CN4CCCC4=O)CC3)n1)CCNCC2` | 5.195 | 2.928 |
| `CC(=O)N1CCCN(C(=O)c2csc(-c3ccc(C)cc3C)n2)CC1` | 1.149 | 1.146 |
| `CN(C)c1ccc(NC(=O)N2CCCCC2c2ncc[nH]2)cn1` (configuration not stated) | 7.937 | -0.9976 |
| `CC(C)(C)c1nc(CN2CCCC(Cn3cncn3)C2)cs1` (configuration not stated) | 1.504 | 5.322 |
| `c1cncc(CN2CCCC3(COCCN(c4nccs4)C3)C2)c1` (configuration not stated) | 7.843 | -0.112 |
| `Cn1cnc2c1CCN(CC(O)c1ccc(S(C)(=O)=O)cc1)C2` (configuration not stated) | 5.056 | 7.916 |
| `Cc1ccc(CN(CCCn2ccnc2)Cc2[nH]cnc2C)s1` | 5.97 | 1.406 |
| `CS(=O)(=O)c1snnc1C1CCN(Cc2cccc(O)c2)CC1` | 15.56 | 1.656 |
| `Cc1cnc(C(=O)NCc2cccnc2OC(C)C)cn1` | 5.523 | -0.5293 |
| `CSc1ncn(-c2nc(NC3CC3)nc(N(C)C)n2)n1` | 9.845 | 6.12 |
| `CC(C)CC(NCc1cccs1)c1ccccn1` (configuration not stated) | 1.98 | 0.8068 |
| `COCCN1CCC(Nc2c(F)cc(C#N)cc2F)CC1` | 12.31 | 5.248 |
| `O=C([C@H]1CCCO1)N1CCC2(CC1)Cc1ccccc1CNC2=O` | 2.062 | 8.449 |
| `NC(=O)CN1CCC(NC2CCCCc3ccccc32)CC1` (configuration not stated) | -2.597 | 1.357 |
| `CN1CCCC1c1ccc(C(=O)N2CCc3ccccc3C2)s1` (configuration not stated) | 11.86 | -4.057 |
| `O=C(c1c[nH]c(=O)c(Cl)c1)N1C[C@@H]2CC[C@H](C1)N(CC1CCC1)C2` | 8.04 | 2.421 |
| `CN(CC1(O)CCCCC1)C1CCCN(Cc2noc(C3CC3)n2)C1` (configuration not stated) | -3.788 | 1.652 |
| `CCS(=O)(=O)Nc1ccc2c(c1)OCC(C)(C)C(=O)N2C` | 12.56 | 6.384 |
| `CC(NC(=O)CCCc1ccc(Cl)cc1)c1nnn[nH]1` (configuration not stated) | 6.704 | 12.79 |
| `COc1ccc(SC(C)C(=O)N2CCC(C(=O)N3CCCC3)CC2)cc1` (configuration not stated) | 2.463 | 3.705 |
| `Cc1ccc(C(=O)N2CCC3(CC2)CN(c2ccccn2)CCO3)cc1` | 10.92 | 3.507 |
| `CCN(CC)C(=O)CN1CCc2c(nc(C3CCNCC3)nc2NC)C1` | 4.651 | 0.8011 |
| `CN(C)c1cc(CNc2cncc(-n3cccn3)n2)ccn1` | 4 | 1.687 |
| `Cc1cc(NCCCC(F)(F)F)n2nc(C)cc2n1` | 7.2 | 2.169 |
| `CCn1cnnc1CNC(=O)N1CCC(CN2CCOCC2)CC1` | 3.944 | 3.007 |
| `COc1cc(C)sc1C(=O)N1CCCC(n2nc(C)nc2C)C1` (configuration not stated) | 4 | 0.4999 |

4 of the entries, repeated:

| structure | TcHisRS | PfKRS1 |
|---|---|---|
| `O=C(CNC(=O)C1CC1)Nc1c(F)cccc1Oc1ccccc1` | 7.843 | 2.136 |
| `CC(C)(C)c1nc(CN2CCCC(Cn3cncn3)C2)cs1` (configuration not stated) | 1.504 | 5.322 |
| `CCn1cnnc1CNC(=O)N1CCC(CN2CCOCC2)CC1` | 3.944 | 3.007 |
| `CC(=O)N1CCCCCC1C1CCN(Cc2nc(C(C)C)no2)CC1` (configuration not stated) | 4.891 | -1.912 |